PMC8693039
The exact form of at least one protein or probe is not confirmed. For some of these results: Where cells or extracts were used, other partners may take part. For some of these results: At least one verdict was read from the data and is not stated in words by the source.

The chains behind the UniProt entries cited, without tags or fusion partners. Where a name states a change or a piece, a line headed by the entry shows the natural chain unless it says otherwise. Residues count along the entry.
UniProt P16422, 24-314: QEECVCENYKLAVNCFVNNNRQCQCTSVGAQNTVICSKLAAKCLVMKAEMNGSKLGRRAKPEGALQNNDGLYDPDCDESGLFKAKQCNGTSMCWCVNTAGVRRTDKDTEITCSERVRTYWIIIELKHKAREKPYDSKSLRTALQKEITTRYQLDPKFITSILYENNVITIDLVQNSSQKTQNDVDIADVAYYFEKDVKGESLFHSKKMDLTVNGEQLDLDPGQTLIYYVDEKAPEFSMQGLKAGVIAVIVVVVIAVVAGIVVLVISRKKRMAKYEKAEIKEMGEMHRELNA
UniProt Q04609: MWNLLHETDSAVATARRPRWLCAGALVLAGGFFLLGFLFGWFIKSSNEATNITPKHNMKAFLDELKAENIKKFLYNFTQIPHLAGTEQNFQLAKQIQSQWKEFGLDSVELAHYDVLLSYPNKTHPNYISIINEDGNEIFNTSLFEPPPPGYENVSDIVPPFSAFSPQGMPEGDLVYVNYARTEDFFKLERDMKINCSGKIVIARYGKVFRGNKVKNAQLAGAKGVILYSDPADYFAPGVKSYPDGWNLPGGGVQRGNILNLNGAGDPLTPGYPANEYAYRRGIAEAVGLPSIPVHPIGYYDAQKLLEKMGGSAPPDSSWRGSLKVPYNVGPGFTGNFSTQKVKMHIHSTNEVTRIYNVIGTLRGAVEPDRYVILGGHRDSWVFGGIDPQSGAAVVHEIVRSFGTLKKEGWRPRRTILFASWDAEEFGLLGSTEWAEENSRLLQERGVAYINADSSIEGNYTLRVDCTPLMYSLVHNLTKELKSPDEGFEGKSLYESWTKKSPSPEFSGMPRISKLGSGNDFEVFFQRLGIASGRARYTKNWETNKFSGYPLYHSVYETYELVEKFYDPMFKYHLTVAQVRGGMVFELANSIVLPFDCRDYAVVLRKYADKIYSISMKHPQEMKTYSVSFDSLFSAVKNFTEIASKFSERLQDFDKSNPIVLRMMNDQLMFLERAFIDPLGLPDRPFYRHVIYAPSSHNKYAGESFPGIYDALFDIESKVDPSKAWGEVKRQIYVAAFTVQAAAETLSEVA
UniProt P19338, whole entry: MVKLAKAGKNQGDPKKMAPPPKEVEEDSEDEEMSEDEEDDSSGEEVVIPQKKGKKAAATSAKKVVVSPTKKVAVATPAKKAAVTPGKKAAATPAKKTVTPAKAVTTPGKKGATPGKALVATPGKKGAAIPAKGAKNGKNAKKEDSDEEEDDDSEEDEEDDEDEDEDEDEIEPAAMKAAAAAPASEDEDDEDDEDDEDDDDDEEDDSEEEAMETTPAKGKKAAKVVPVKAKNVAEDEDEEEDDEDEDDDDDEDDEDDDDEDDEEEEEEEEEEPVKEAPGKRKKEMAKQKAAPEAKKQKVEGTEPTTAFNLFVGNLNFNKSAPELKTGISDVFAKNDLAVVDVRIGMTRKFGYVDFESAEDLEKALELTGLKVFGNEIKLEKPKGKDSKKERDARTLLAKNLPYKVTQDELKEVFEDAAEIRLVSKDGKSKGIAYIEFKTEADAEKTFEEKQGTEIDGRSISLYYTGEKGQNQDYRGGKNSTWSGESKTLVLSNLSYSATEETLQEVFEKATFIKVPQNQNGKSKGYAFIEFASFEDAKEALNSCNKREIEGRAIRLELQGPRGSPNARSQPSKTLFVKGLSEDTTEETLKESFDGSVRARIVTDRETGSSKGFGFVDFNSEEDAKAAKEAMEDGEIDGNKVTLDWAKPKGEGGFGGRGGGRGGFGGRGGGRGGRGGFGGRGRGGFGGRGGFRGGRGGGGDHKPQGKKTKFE

Experiments:
[1] = molecular target: EpCAM (epithelial cell adhesion molecule) (human (LNCaP cells)) (UniProt P16422); assay: cell fluorescence and mass imaging; conditions: 5'-NH2C7 amide-coupled to carbon nanodot, CyTOF titration: fixed LNCaP cells, probe 30 min at room temperature, CSB washes, slide imaging: 0.1% Triton X-100 permeabilized, 3% BSA/PBS block, probe overnight at 4 C, protein on the cell surface, label: B-Cdots(165Ho), folded or branched DNA
[2] = molecular target: EpCAM (epithelial cell adhesion molecule) (human (LNCaP cells)) (UniProt P16422); assay: cell immunofluorescence imaging; conditions: LNCaP, co-staining, fluorescence intensity 4865.3 +/- 225.1; 5'-NH2C7 amide-coupled to carbon nanodot; CyTOF titration: fixed LNCaP cells, probe 30 min at room temperature, CSB washes; slide imaging: 0.1% Triton X-100 permeabilized, 3% BSA/PBS block, probe overnight at 4 C; protein on the cell surface; label: R-Cdots(169Tm); folded or branched DNA
[3] = molecular target: PSMA (prostate-specific membrane antigen) (human (LNCaP cells)) (UniProt Q04609); assay: cell immunofluorescence imaging; conditions: CyTOF titration: fixed LNCaP cells, probe 30 min at room temperature, CSB washes, slide imaging: 0.1% Triton X-100 permeabilized, 3% BSA/PBS block, probe overnight at 4 C, protein on the cell surface
[4] = molecular target: PSMA (prostate-specific membrane antigen) (human (LNCaP cells)) (UniProt Q04609); assay: mass cytometry titration on LNCaP cells; fluorescence and mass imaging vs PC-3; conditions: saturation curve, 148-4736 ng/mL, stronger on LNCaP than PSMA-negative PC-3; 5'-NH2C7 amide-coupled to carbon nanodot; other modifications not stated; CyTOF titration: fixed LNCaP cells, probe 30 min at room temperature, CSB washes; slide imaging: 0.1% Triton X-100 permeabilized, 3% BSA/PBS block, probe overnight at 4 C; protein on the cell surface; label: B-Cdots(165Ho)
[5] = molecular target: nucleolin (NCL) (human (LNCaP cells)) (UniProt P19338); assay: cell fluorescence and mass imaging; conditions: 5'-NH2C7 amide-coupled to carbon nanodot, CyTOF titration: fixed LNCaP cells, probe 30 min at room temperature, CSB washes, slide imaging: 0.1% Triton X-100 permeabilized, 3% BSA/PBS block, probe overnight at 4 C, native protein, label: B-Cdots(165Ho), folded or branched DNA
[6] = molecular target: nucleolin (NCL) (human (LNCaP cells)) (UniProt P19338); assay: cell immunofluorescence imaging; conditions: LNCaP, co-staining, fluorescence intensity 4429.0 +/- 233.5; 5'-NH2C7 amide-coupled to carbon nanodot; CyTOF titration: fixed LNCaP cells, probe 30 min at room temperature, CSB washes; slide imaging: 0.1% Triton X-100 permeabilized, 3% BSA/PBS block, probe overnight at 4 C; native protein; label: G-Cdots(165Ho); folded or branched DNA

Sequence: CACTACAGAGGTTGCGTCTGTCCCACGTTGTCATGGGGGGTTGGCCTG [B-Cdots(165Ho)-SYL3C]
- binding result [1]: binds

Sequence: CACTACAGAGGTTGCGTCTGTCCCACGTTGTCATGGGGGGTTGGCCTG [R-Cdots(169Tm)-SYL3C]
- binding result [2]: binds

Sequence: GGGAGGACGAUGCGGAUCAGCCAUGUUUACGUCACUCCU [B-Cdots(159Tb)-A10-3.2]
- binding result ([3]; LNCaP, co-staining, fluorescence intensity 9446.8 +/- 406.4, 5'-NH2C7 amide-coupled to carbon nanodot, other modifications not stated, label: B-Cdots(159Tb)): binds

Sequence: GGGAGGACGAUGCGGAUCAGCCAUGUUUACGUCACUCCU [B-Cdots(165Ho)-A10-3.2]
- binding result [4]: binds

Sequence: GGGAGGACGAUGCGGAUCAGCCAUGUUUACGUCACUCCU [Cy5.5-A10-3.2]
- binding result ([3]; control probe on LNCaP and PC-3, label: Cy5.5): binds

Sequence: GGTGGTGGTGGTTGTGGTGGTGGTGGTTTTTT [B-Cdots(165Ho)-AS1411]
- binding result [5]: binds

Sequence: GGTGGTGGTGGTTGTGGTGGTGGTGGTTTTTT [G-Cdots(165Ho)-AS1411]
- binding result [6]: binds
